Publication PMC10059083, “Design, Synthesis, and Biological Evaluation of Novel Hydroxamic Acid-Based Organoselenium Hybrids” (Pharmaceuticals, 2023)
Values after ≈ are worked out from the molar mass of the structure shown.

What was measured:
[1] = test system: E. coli; assay: MIC by microdilution, E. coli; assay type: cell-based; conditions: Escherichia coli; microdilution method
From the text: (§1) The encouraging antitumor properties of the OSe compounds motivated us to evaluate their corresponding antimicrobial activities against the C. albicans fungal strain, S. aureus Gram-positive bacteria, and E. coli Gram-negative bacteria. Therefore, we applied the agar diffusion and minimum inhibitory concentration (MIC) methods using clotrimazole antifungal and ampicillin antibacterial drugs as standards.
(§2) The products’ antimicrobial properties were examined according to the previously reported method, via agar well diffusion assay against E. coli, S. aureus, and C. albicans. A microdilution method was also used to record MICs (M), following the previously reported procedure. Experimental details can be found in the Supplementary Materials.
(§3) Briefly, a concentration of 1 mM was prepared for each compound by dissolving in DMSO. Paper discs of standard size […] were sterilized in an autoclave and soaked in 9 µL of the test compounds, and placed in the Petri dishes, which in turn contain a nutrient media (agar 9 g, peptone 5 g, and beef extract 3 g) seeded with the dedicated strain. Incubation lasted for 13 h at 36 0C. […]

[2] = test system: S. aureus; assay: MIC by microdilution, S. aureus; assay type: cell-based; conditions: Staphylococcus aureus; microdilution method
From the text: as §1, §2, §3

Q: How did the MIC [1] turn out when `CC1(C)S[C@@H]2[C@H](NC(=O)[C@H](N)c3ccccc3)C(=O)N2[C@H]1C(=O)O` [Ampicillin, ampicillin, reference compound] was run?
A: Its MIC is 0.5 µM (≈ 0.175 µg/mL).

Q: What about the MIC [2] of the same compound?
A: The MIC was 1 µM (≈ 0.349 µg/mL).
